Laboratory results taken from PubChem BioAssay AID1347076 (National Center for Advancing Translational Sciences (NCATS), 2019).
Out of some 400,000 compounds screened, about 13,000 (3.2%) were called active. This list was built around the results that the source calls inconclusive (neither active nor inactive); the mix of calls is not that of the screen. The call rests on the fitted dose curve; in most records, active means well fitted cell-killing curve with a large enough effect; inconclusive means small, poorly fitted or top-dose-only effect, or effect the other way; inactive means flat fitted curve, though single readings scatter. Potencies beside an inconclusive call are fits to weak or partial responses and may not hold up.

Test: qHTS assay for MDR1-selective chemotherapeutics: Primary screen using the drug-selected MDR subline cells KB-V1; further: nearly all actives have a fitted effect of over 60% in size
Settings: KB-V1 MDR cells viability, CellTiter-Glo, 72 h; activity change, negative = cytotoxicity: at 46.1 µM (top of the series)
Outline: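 qHTS viability screen in drug-selected KB-V1 MDR cells: 72 h compound treatment at 37 degrees C, ATP luminescence end point.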
On the % scale 0 is the no-effect control and ±100 the full control effect; potency means the concentration at half of the fitted maximal effect.

| SMILES | activity change, negative = cytotoxicity | Potency |
| --- | --- | --- |
| Cc1ccc(C)c(NC(NC(=O)c2ccccn2)C(Cl)(Cl)Cl)c1 (centres undefined) | inactive: -6.57% | – |
| COC(=O)c1ccccc1NC(=O)N1CCCC1 | – | inconclusive: 23.1 µM [cytotoxic, partial curve, poor fit] |
| O=C(N/N=C/c1ccccc1F)NC12CC3CC(CC(C3)C1)C2 | inactive: 1.83% | – |
| COC(=O)C1=C(C)NC2=C(C(=O)CC(C)(C)C2)C1c1ccsc1 (centres undefined) | – | inconclusive: 16.4 µM [cytotoxic, single point] |
| CCN(CC(=O)Nc1cc(Cl)ccc1C)C(=O)c1oc2ccc(OC)cc2c1C | – | active: 16.4 µM |
| COc1cccc(Nc2nc(C(N)CO)cs2)n1 (centres undefined) | inactive: 1.56% | – |
| O=C(NCCc1c[nH]c2ccccc12)c1[nH]c(C(F)(F)F)nc1-c1ccccc1 | inactive: 3.31% | – |
| O=S(=O)(ON(c1ccccc1)S(=O)(=O)c1ccccc1)c1ccccc1 | – | active: 23.1 µM |
| COc1ccc(-c2nc3ccccc3c(=O)n2NC(=O)Cc2ccccc2)cc1 | – | active: 14.6 µM |
| Cc1ccc(S(=O)(=O)N2CCN(CC(=O)N/N=C\c3ccc(Cl)c([N+](=O)[O-])c3)CC2)cc1 | inactive: 6.64% | – |
| O=C(NCc1ccccn1)C(=O)Nc1nc(-c2ccccc2)cs1 | – | inconclusive: 20.6 µM [cytotoxic, single point] |
| C[C@H]1CN([C@@H](C)CO)C(=O)CCCn2cc(nn2)CO[C@@H]1CN(C)S(=O)(=O)c1ccc(Oc2ccccc2)nc1 | inactive: 26.4% | – |
| CN(C)C(=O)c1cc(C(=O)c2ccccc2Br)c[nH]1 | inactive: 17.3% | – |
| OC(c1ccccc1)(c1ccccc1)c1ccn[nH]1 | – | inconclusive: 18.4 µM [rising, single point] |
| Cc1cc(C)n(-c2nc(NCCN(C)C)c3c4c(sc3n2)CCCC4)n1 | – | inconclusive: 18.4 µM [cytotoxic, single point] |
| CCOC(=O)CNC(=O)Cn1cnc2c(oc3ccccc32)c1=O | – | inconclusive: 32.6 µM [rising, single point] |
| COC(=O)c1ccc(N2CCN(S(=O)(=O)c3ccc4ccccc4c3)CC2)c([N+](=O)[O-])c1 | – | inconclusive: 18.4 µM [cytotoxic, partial curve, poor fit] |
| Cc1ccc(NC(=O)c2c(C)nn(-c3ccccc3)c2Cl)cc1 | inactive: -13.7% | – |
| Cc1nnc(N2CCN(C(=O)Nc3cc(F)ccc3F)CC2)c2nn(-c3ccc(Cl)cc3)c(C)c12 | – | inconclusive: 29.1 µM [cytotoxic, single point] |
| CCCC(C)NC(=O)c1sc2nc3n(c(=O)c2c1C)CCC3 (centres undefined) | – | inconclusive: 20.6 µM [cytotoxic, single point] |
| O=C(NCc1ccco1)c1cc2nc(C3CC3)cc(C(F)(F)F)n2n1 | – | inconclusive: 32.6 µM [cytotoxic, single point] |
| COC(=O)c1ccc(CSc2ccccc2NC(=S)Nc2cccc(C(F)(F)F)c2)o1 | – | inconclusive: 29.1 µM [cytotoxic, single point] |
| CCOc1ccc(NC(=O)COc2ccc(C(=O)NCC3CCCO3)cc2OC)cc1 (centres undefined) | – | inconclusive: 3.66 µM [cytotoxic, full curve] |

14 entries from above, comma-delimited:
SMILES,"activity change, negative = cytotoxicity",Potency
Cc1ccc(S(=O)(=O)N2CCN(CC(=O)N/N=C\c3ccc(Cl)c([N+](=O)[O-])c3)CC2)cc1,inactive: 6.64%,–
O=C(NCc1ccccn1)C(=O)Nc1nc(-c2ccccc2)cs1,–,"inconclusive: 20.6 µM [cytotoxic, single point]"
C[C@H]1CN([C@@H](C)CO)C(=O)CCCn2cc(nn2)CO[C@@H]1CN(C)S(=O)(=O)c1ccc(Oc2ccccc2)nc1,inactive: 26.4%,–
CN(C)C(=O)c1cc(C(=O)c2ccccc2Br)c[nH]1,inactive: 17.3%,–
OC(c1ccccc1)(c1ccccc1)c1ccn[nH]1,–,"inconclusive: 18.4 µM [rising, single point]"
Cc1cc(C)n(-c2nc(NCCN(C)C)c3c4c(sc3n2)CCCC4)n1,–,"inconclusive: 18.4 µM [cytotoxic, single point]"
CCOC(=O)CNC(=O)Cn1cnc2c(oc3ccccc32)c1=O,–,"inconclusive: 32.6 µM [rising, single point]"
COC(=O)c1ccc(N2CCN(S(=O)(=O)c3ccc4ccccc4c3)CC2)c([N+](=O)[O-])c1,–,"inconclusive: 18.4 µM [cytotoxic, partial curve, poor fit]"
Cc1ccc(NC(=O)c2c(C)nn(-c3ccccc3)c2Cl)cc1,inactive: -13.7%,–
Cc1nnc(N2CCN(C(=O)Nc3cc(F)ccc3F)CC2)c2nn(-c3ccc(Cl)cc3)c(C)c12,–,"inconclusive: 29.1 µM [cytotoxic, single point]"
CCCC(C)NC(=O)c1sc2nc3n(c(=O)c2c1C)CCC3 (centres undefined),–,"inconclusive: 20.6 µM [cytotoxic, single point]"
O=C(NCc1ccco1)c1cc2nc(C3CC3)cc(C(F)(F)F)n2n1,–,"inconclusive: 32.6 µM [cytotoxic, single point]"
COC(=O)c1ccc(CSc2ccccc2NC(=S)Nc2cccc(C(F)(F)F)c2)o1,–,"inconclusive: 29.1 µM [cytotoxic, single point]"
CCOc1ccc(NC(=O)COc2ccc(C(=O)NCC3CCCO3)cc2OC)cc1 (centres undefined),–,"inconclusive: 3.66 µM [cytotoxic, full curve]"

More entries follow.

| SMILES | activity change, negative = cytotoxicity | Potency |
| --- | --- | --- |
| CC1=NN(C(N)=S)C(=O)C1N=Nc1ccccc1Cl (centres undefined) | inactive: 0% | – |
| O=C(Nc1ccccc1)N1CCCC(c2nc(-c3cccs3)no2)C1 (centres undefined) | – | active: 11.6 µM |
| CSc1ccccc1NC(=O)CN1c2ccccc2CC1C (centres undefined) | inactive: 4.04% | – |
| CS(=O)(=O)c1cc([N+](=O)[O-])c(Sc2nc3ccccc3[nH]2)c([N+](=O)[O-])c1 | inactive: -17.4% | – |
| COc1ccc(N2CCN(C(=O)CNS(=O)(=O)c3ccc(C)c(C)c3)CC2)cc1 | – | inconclusive: 0.58 µM [cytotoxic, partial curve, poor fit] |
| CCCCCCCCCC(=O)NNC(=O)c1c(O)c2ccccc2n(CC)c1=O | – | inconclusive: 23.1 µM [cytotoxic, single point] |
| CC(=O)N1CCc2c(sc3c2c(=O)n(CCc2ccccc2)c(=O)n3Cc2ccc(F)cc2)C1 | – | inconclusive: 25.9 µM [cytotoxic, single point] |
| Nc1ccc(C(=O)NN2C(=O)[C@H](Cl)C2c2ccc(Cl)cc2)cc1 (some centres undefined) | – | inconclusive: 18.4 µM [cytotoxic, single point] |
| COc1ccc(NC(=O)CN(C)CC(=O)NC2CCC(C)CC2)cc1 (centres undefined) | – | active: 20.6 µM |
| COc1ccc(CCNC(=O)C(=O)NCCC2CCCCN2S(=O)(=O)c2cccs2)cc1 (centres undefined) | inactive: -8.63% | – |
| CC(C)[C@@H](NC(=O)OC(C)(C)C)c1cc(C(=O)c2c(-c3ccccc3)[nH]c3ccccc23)c(N)s1 | – | active: 23.1 µM |
| Cc1ccc2nc3c(cc2c1)CN(Cc1ccco1)C(=NCC1CCCO1)S3 (centres undefined) | – | inconclusive: 16.4 µM [cytotoxic, single point] |
| CCc1ccc(-n2c(CCC(=O)O)ccc2-c2cccs2)cc1 | – | inconclusive: 23.1 µM [rising, single point] |
| CCc1ccc2c(c1)c1nnc(NN)nc1n2C | – | inconclusive: 29.1 µM [cytotoxic, single point] |
| O=C(Nc1nc(-c2ccc(S(=O)(=O)N3CCCC3)cc2)cs1)C1COc2ccccc2O1 (centres undefined) | – | inconclusive: 20.6 µM [cytotoxic, single point] |
| CC(/C=C1\SC(=S)N(C(C(=O)O)C(C)C)C1=O)=C\c1ccccc1 (centres undefined) | – | inconclusive: 9.2 µM [rising, partial curve] |
| O=C(/C=C/c1cccc([N+](=O)[O-])c1)n1cnc2ccccc21 | – | inconclusive: 18.4 µM [cytotoxic, partial curve, poor fit] |
| CCCOc1ccc(/C=N/Nc2ccc(C(=O)O)cc2)c(OCCC)c1 | inactive: -3.4% | – |
| CCOC(=O)Cn1c(=O)oc2cc(S(=O)(=O)N(C)Cc3ccco3)ccc21 | – | inconclusive: 29.1 µM [rising, single point] |
| COC(=O)c1cc2c(-c3ccccc3)cc3ccccn3c-2c1C(=O)OC | – | inconclusive: 10.3 µM [cytotoxic, partial curve, poor fit] |
| CCOC(=O)Cc1c(C)nc2c(-c3ccc(Cl)cc3)c[nH]n2c1=O | – | inconclusive: 29.1 µM [cytotoxic, single point] |
| O=C1c2ccccc2-c2nnc(-c3ccccc3)cc21 | – | inconclusive: 29.1 µM [cytotoxic, single point] |
| COCCNC(=O)c1c(N)n(/N=C/c2ccc(F)cc2)c2nc3ccccc3nc12 | inactive: -4.11% | – |

| SMILES | activity change, negative = cytotoxicity | Potency |
| --- | --- | --- |
| COc1ccc(-c2cc(C(=O)N3CCN(S(=O)(=O)c4ccc(C)cc4)CC3)[nH]n2)cc1 | inactive: 14.8% | – |
| O=C(Nc1ccc([N+](=O)[O-])cc1)c1cnn2c1NC(=C1CC1)C=C2C(F)F | – | inconclusive: 18.4 µM [rising, single point] |
| CCCc1ccc(Oc2cc(N3CCOCC3)nc(-c3ccccc3)n2)cc1 | – | inconclusive: 14.6 µM [cytotoxic, partial curve] |
| Fc1ccc(C2CC(c3ccc(F)cc3)n3ncnc3N2)cc1 (centres undefined) | – | inconclusive: 18.4 µM [cytotoxic, single point] |
| CCOC(=O)CSc1nnc(NC(=O)CCc2ccccc2)s1 | – | inconclusive: 29.1 µM [rising, partial curve, poor fit] |
| Cn1c(=O)c2c(nc(CN3CCc4ccccc4C3)n2CCCO)n(C)c1=O | – | inconclusive: 18.4 µM [cytotoxic, single point] |
| CCOC(=O)Nc1ccc2c(c1)N(C(=O)CCN1CCOCC1)c1ccccc1S2=O (centres undefined) | – | inconclusive: 29.1 µM [cytotoxic, single point] |
| COc1ccc(CCN(Cc2cc3cc(C)cc(C)c3nc2Cl)C(=O)C2CC2)cc1 | – | inconclusive: 18.4 µM [cytotoxic, single point] |
| CC1=NN(Cc2ccccc2)C(=O)C1C(c1ccccc1)C(C#N)C#N (centres undefined) | – | inconclusive: 23.1 µM [cytotoxic, partial curve, poor fit] |
| Cc1cccc(NC(=S)NNC(=O)c2nn(C)cc2Cl)c1 | inactive: 3.27% | – |
| Cc1sc2nc(SCC(=O)C(C)(C)C)n(Cc3ccco3)c(=O)c2c1C | – | active: 2.59 µM |
| CCOc1ccc(CCNC(=O)CSCc2nc(-c3cccc(C)c3)oc2C)cc1OCC | – | inconclusive: 14.6 µM [cytotoxic, partial curve, poor fit] |
| Cc1ccc(-c2nnc(Nc3cccc(O)c3)c3ccccc23)cc1S(=O)(=O)NCCO | – | inconclusive: 29.1 µM [rising, single point] |
| COc1ccc(-c2csc(Cc3nnc(N4CCOCC4)n3-c3ccccc3)n2)cc1OC | inactive: -9.59% | – |
| O=C(N/N=C/c1ccc(Cl)cc1Cl)c1ccc(-n2cnnn2)cc1 | – | inconclusive: 29.1 µM [rising, single point] |
| Cc1ccc(S(=O)(=O)N(C)CC(=O)Nc2cccnc2)cc1 | inactive: 0% | – |
| CCOC(=O)C1CCN(CC(=O)Nc2c(C(=O)OC)[nH]c3ccc(Cl)cc23)CC1 | – | inconclusive: 20.6 µM [cytotoxic, single point] |
| Cc1ccc(-n2ncc3c2CC(C)(C)CC3NC(=O)C2CCOCC2)cc1 (centres undefined) | – | inconclusive: 5.8 µM [cytotoxic, partial curve] |
| CCCCn1c(N)c(N(CC)C(=O)CN2C(=O)NC(C)(c3ccccc3)C2=O)c(=O)[nH]c1=O (centres undefined) | inactive: 10.6% | – |
| O=C(COC(=O)C12CC3CC(CC(O)(C3)C1)C2)Nc1ccc(Br)cc1F | – | inconclusive: 32.6 µM [rising, single point] |
| Cc1c(C(=O)NCc2ccc3c(c2)OCCO3)sc(=O)n1Cc1cccc(C(F)(F)F)c1 | – | active: 7.31 µM |
| CC(=O)c1ccc(N2Cc3ccccc3C2=NC(=O)c2cccs2)cc1 | – | inconclusive: 23.1 µM [cytotoxic, partial curve, poor fit] |
| C=C(C)c1cccc(C(C)(C)NC(=O)N2CCC(C)CC2)c1 | – | active: 18.4 µM |
